Source: patent US20230365577A1, “Photodynamic Therapy and Diagnosis” (RMW CHO Group Limited, priority 2020, published 2023)
Structures can show the parent of a compound that is named as a salt. Some compounds share one wording; it may come from a single statement.

Experiments:
[1] = test system: SKOV3 ovarian cancer cells; test: Phototoxicity in SKOV3 cells (652 nm laser, AlamarBlue viability); type: cell-based, Human; details: calculated using phototoxicity IC90 vs dark toxicity IC10, SKOV3
Experimental: Human ovarian cancer cell line SKOV3 (ATCC #HTB-77) was maintained in Dulbecco's Modified Eagle Medium/Nutrient Mixture F-12 (DMEM/F-12), supplemented with 10% v/v Fetal Bovine Serum, 100 U/mL penicillin and 100 µg/mL streptomycin. Monolayer cultures were grown in a humidified incubator at 37° C. with 5% CO2.
For in vitro experiments, photosensitizers (stock solution 5.5 mM in 100% DMSO) were diluted in cell culture media (Dulbecco's Modified Eagle Medium/Nutrient Mixture F-12) supplemented with 10% v/v Fetal Bovine Serum, 100 U/mL penicillin, 100 µg/mL streptomycin and 10% w/v Kollidon-12. Once cells had reached ˜80% confluence, spent media was replaced with media containing photosensitizer and cells were incubated for the desired period of time to allow photosensitizer uptake.
SKOV3 cells were seeded in 96-well black wall plates (Greiner #655090) at a cell density of 5000 cells in 100 μl culture medium per well. On reaching ˜60% confluence, so media was aspirated and replaced with fresh media containing the relevant phyllochlorin analogue from 0-100 μM in DMSO. Cells were incubated for a further 24 hours, allowing uptake of phyllochlorin analogues.
To test for phototoxicity, cells incubated with phyllochlorin analogues (0-10 μM in DMSO) had culture media replaced after 24 hours (as above) and were then exposed to a 652 nm laser (Invion) with laser density at 50 mW/cm^2 for 5 mins (total 15 J/cm^2). Following activation, cells were cultured for a further 24 hours. Media was then replaced with fresh media containing AlamarBlue, and % viable cells remaining assessed as above. Controls included cells treated with phyllochlorin analogues but not activated by laser light; cells without phyllochlorin analogue treatment but with laser light; and untreated controls. All measurements were made in quadruplicate.
For comparative purposes, phyllochlorin analogues were tested and compared against both chlorin e4 disodium and Talaporfin sodium, a clinically approved photosensitizer used in the photodynamic treatment of lung cancers. Phototoxicity IC90 values and dark toxicity IC10 values were calculated using a log[inhibitor]-vs normalized response dose curve with variable slope, using the formula Y=100/(1+(IC90/X)^HillSlope (phototoxicity IC90) or Y=100/(1+(IC10/X)^HillSlope (dark toxicity IC10).

[2] = test system: SKOV3 cells; test: Cellular uptake and retention (intrinsic fluorescence); type: cell-based, Human; details: SKOV3, fluorescence imaging
Experimental: Based on the increased phototoxicity of compound 1c versus compound 1, it was assessed whether this salt substitution alters cellular uptake or retention over time. SKOV3 cells were incubated for up 24 hours in the presence of either compound 1 or 1c (as previously described). At defined time intervals (FIG. 5) the media was aspirated, replaced with sterile PBS, and cells imaged for fluorescence (Ex 405 nm/Em 660 nm) using a Cytation 3 Multimode Plate Reader (Biotek). After 24 hours the media was aspirated, replaced with fresh media and the loss of cellular fluorescence similarly monitored. All images (minimum 100 cells per time point) were then quantitatively analysed (Gen5.0 software) and an average fluorescence/cell/time point determined. Average fluorescence measurements were normalised against the maximum average value measured for each photosensitizer, and plotted as percent total fluorescence (mean±SD) overtime.
The uptake and retention of compounds 1 and 2 was compared in SKOV3 cancer cells over a 48 hour period. SKOV3 cells were incubated for up 24 hours in the presence of either compound 1 or 2 (as previously described). At defined time intervals (FIG. 6) the media was aspirated, replaced with sterile PBS, and cells imaged for fluorescence (Ex 405 nm/Em 660 nm) using a Cytation 3 Multimode Plate Reader (Biotek). After 24 hours the media was aspirated, replaced with fresh media and the loss of cellular fluorescence similarly monitored. All images (minimum 100 cells per time point) were then quantitatively analysed (Gen5.0 software) and an average fluorescence/cell/time point determined. Average fluorescence measurements were normalised against the maximum average value measured for each photosensitizer, and plotted as percent total fluorescence (mean±SD) over time.
Phyllochlorin was functionalised with saccharidyl groups (glucose or mannose) using various configurations, and the effects on rate of uptake by cells assessed over a 4 hour incubation period as above. The rate of uptake of saccharidyl-conjugated phyllochlorin analogues exceeded that of unconjugated compound 2 (examples shown in FIG. 7); after 2 hours, saccharidyl-conjugated phyllochlorin analogues (compounds 6, 8 and 17) had reached 57-68% of their maximal uptake compared to 37% for compound 2 (FIG. 7A). By 4 hours total uptake was similar, and there was no apparent difference in cellular distribution between glucose (compounds 6 and 8) and mannose (compound 17) linked species (FIG. 7B).

C=Cc1c(C)c2cc3nc(c(C)c4cc(C)c(cc5nc(cc1[nH]2)C(C)=C5CC)[nH]4)[C@@H](CCC(=O)N(C)CCCS[C@@H]1O[C@H](CO)[C@@H](O)[C@H](O)[C@H]1O)[C@@H]3C [Compound 6, 3-((7S,8S)-18-ethyl-2,5,8,12,17-pentamethyl-13-vinyl-7H,8H-porphyrin-7-yl)-N-methyl-N-(3-(((2S,3R,4S,5S,6R)-3,4,5-trihydroxy-6-(hydroxymethyl)tetrahydro-2H-pyran-2-yl)thio)propyl)propanamide]
Therapeutic Index [1]: 158.17
Cellular distribution [2]: diffusely distributed throughout the cytoplasm

C=Cc1c(C)c2cc3nc(c(C)c4cc(C)c(cc5nc(cc1[nH]2)C(C)=C5CC)[nH]4)[C@@H](CCC(=O)O)[C@@H]3C [Compound 1, phyllochlorin sodium salt]
Therapeutic Index ([1]; sodium salt): 62.74
Cellular distribution [2]: diffusely distributed throughout the cytoplasm

C=Cc1c(C)c2cc3nc(c(C)c4cc(C)c(cc5nc(cc1[nH]2)C(C)=C5CC)[nH]4)[C@@H](CCC(=O)N(C)CCCCCS[C@@H]1O[C@H](CO)[C@@H](O)[C@H](O)[C@H]1O)[C@@H]3C [Compound 8, 3-((7S,8S)-18-ethyl-2,5,8,12,17-pentamethyl-13-vinyl-7H,8H-porphyrin-7-yl)-N-methyl-N-(5-(((2S,3R,4S,5S,6R)-3,4,5-trihydroxy-6-(hydroxymethyl)tetrahydro-2H-pyran-2-yl)thio)pentyl)propanamide]
Therapeutic Index [1]: 209.17
Cellular distribution [2]: diffusely distributed throughout the cytoplasm

C=Cc1c(C)c2cc3nc(c(C)c4cc(C)c(cc5nc(cc1[nH]2)C(C)=C5CC)[nH]4)[C@@H](CCC(=O)OC)[C@@H]3C [Compound 2, phyllochlorin methyl ester]
Therapeutic Index [1]: 152.38
Cellular distribution [2]: distinctly punctate distribution

C=Cc1c(C)c2cc3nc(c(C)c4cc(C)c(cc5nc(cc1[nH]2)C(C)=C5CC)[nH]4)[C@@H](CCC(=O)N(C)CCOCCO[C@@H]1O[C@H](CO)[C@@H](O)[C@H](O)[C@H]1O)[C@@H]3C [Compound 14, 3-((7S,8S)-18-ethyl-2,5,8,12,17-pentamethyl-13-vinyl-7H,8H-porphyrin-7-yl)-N-methyl-N-(2-(2-(((2R,3R,4S,5S,6R)-3,4,5-trihydroxy-6-(hydroxymethyl)tetrahydro-2H-pyran-2-yl)oxy)ethoxy)ethyl)propanamide]
Therapeutic Index [1]: 134.06

C=Cc1c(C)c2cc3nc(c(C)c4cc(C)c(cc5nc(cc1[nH]2)C(C)=C5CC)[nH]4)[C@@H](CCC(=O)O)[C@@H]3C [Compound 1e, phyllochlorin meglumine salt]
Therapeutic Index [1]: 11.58

C=Cc1c(C)c2cc3nc(c(C)c4cc(C)c(cc5nc(cc1[nH]2)C(C)=C5CC)[nH]4)[C@@H](CCC(=O)N(C)CCCS[C@@H]1O[C@H](COC(=O)[C@@H](N)C(C)C)[C@@H](O)[C@H](O)[C@H]1O)[C@@H]3C [Compound 12, ((2R,3S,4S,5R,6S)-6-((3-(3-((7S,8S)-18-ethyl-2,5,8,12,17-pentamethyl-13-vinyl-7H,8H-porphyrin-7-yl)-N-methylpropanamido)propyl)thio)-3,4,5-trihydroxytetrahydro-2H-pyran-2-yl)methyl L-valinate hydrochloride]
Therapeutic Index [1]: 157.56

C=Cc1c(C)c2cc3nc(c(C)c4cc(C)c(cc5nc(cc1[nH]2)C(C)=C5CC)[nH]4)[C@@H](CCC(=O)O)[C@@H]3C [Compound 1b, phyllochlorin lithium salt]
Therapeutic Index ([1]; lithium salt): 15.81

C=Cc1c(C)c2cc3nc(c(C)c4cc(C)c(cc5nc(cc1[nH]2)C(C)=C5CC)[nH]4)[C@@H](CCC(=O)N(C)CCO)[C@@H]3C [Compound 10, 3-((7S,8S)-18-ethyl-2,5,8,12,17-pentamethyl-13-vinyl-7H,8H-porphyrin-7-yl)-N-(2-hydroxyethyl)-N-methylpropanamide]
Therapeutic Index [1]: 93.38

C=Cc1c(C)c2cc3nc(c(C)c4cc(C)c(cc5nc(cc1[nH]2)C(C)=C5CC)[nH]4)[C@@H](CCC(=O)N(C)CCCS[C@@H]1O[C@H](CO)[C@@H](O)[C@H](O)[C@@H]1O)[C@@H]3C [Compound 17, phyllochlorin β-D-1-thiomannose-N-methylpropylamide conjugate]
Therapeutic Index [1]: 346.68
Cellular distribution [2]: diffusely distributed throughout the cytoplasm
